Values of other authors, collected in patent US7244431B2, “Allergy vaccines and their preparation” (priority 2000, dated 2007).
Some compounds share one wording; it may come from a single statement.

Tested on: Bet v 1-specific human T cells
Conditions: presence of Bet v 1-specific T cell epitopes; cited from earlier work

CGPGTIKKISFPEGFPFKYVKDRVDEVDHTN [Peptide P3, Bet v 1-derived synthetic peptide, position aa 50-79, one cysteine added]
T cell epitope: do not contain Bet v 1-specific T cell epitopes

LFPKVAPQAISSVENIEGNGGPGTIKKISFC [Peptide P2, Bet v 1-derived synthetic peptide, position aa 30-59, one cysteine added]
T cell epitope: do not contain Bet v 1-specific T cell epitopes

CVDHTNFKYNYSVIEGGPIGDTLEKISNEIK [Peptide P6, Bet v 1-derived synthetic peptide, position aa 75-104, one cysteine added]
T cell epitope: comprise sequence motifs which were found to stimulate Bet v 1-specific human T cells

MGVFNYETETTSVIPAARLFKAFIC [Peptide P1, Bet v 1-derived synthetic peptide, position aa 1-24, one cysteine added]
T cell epitope: do not contain Bet v 1-specific T cell epitopes

DGGSILKISNKYHTKGDHEVKAEQVKASKEC [Peptide P4, Bet v 1-derived synthetic peptide, position aa 110-139, one cysteine added]
T cell epitope: comprise sequence motifs which were found to stimulate Bet v 1-specific human T cells

CKAEQVKASKEMGETLLRAVESYLLAHSDAYN [Peptide P5, Bet v 1-derived synthetic peptide, position aa 130-160, one cysteine added]
T cell epitope: comprise sequence motifs which were found to stimulate Bet v 1-specific human T cells
